Measured values as given in patent US8097650B2, “Method of treating a condition associated with phosphorylation of TASK-1” (The Trustees of Columbia University In The City of New York, priority 2005, dated 2012).
At least one compound was matched to its structure with a doubt left.

Tested on: mouse ventricular myocytes
Assay: Action potentials in paced mouse ventricular myocytes (current clamp)
Type: cell-based
Conditions: C-PAF 185 nM, paced WT myocytes, cycle length 1000 ms
Procedure: Adult mice, 2-3 months old, were anesthetized with ketamine/xylazine and their hearts were removed according to protocols approved by the Columbia University-IACUC. Experiments were performed on single rod-shaped, quiescent ventricular myocytes dissociated using a standard retrograde collagenase perfusion (Kuznetsov V et al. (1995) Circ Res 76: 40-52) from hearts of mice that were either wild-type (WT), or PAFR knockouts (KO). Both WT and KO mice were bred on a C57/B16 background. The derivation of the KO mice has been described previously (Hoffman, B F et al.(1996) J Cardiovasc Electrophysiol 7:120-133).
Prior to electrophysiological measurements, cells were placed into the perfusion chamber and superfused at room temperature with Tyrode's buffer (in mM: NaCl, 140; KCl, 5.4; CaCl2 1; MgCl2, Hepes, 5; Glucose, 10; pH 7.4). […]
Current and voltage protocols were generated using Clampex 7.0 software applied by means of an Axopatch 200B amplifier and a Digidata 1200 interface (Axon Instruments). […] Data were analyzed using pCLAMP 8.0 (Axon) and Origin 6.0 (Microcal) and are presented as mean±SEM. Steady-state current was determined by computer calculation of average current over a time period of at least 5 s. […] Records have been corrected for the junction potential, which was measured to be 9.8 mV.

CCCCCCCCCCCCCCCCOC[C@H](COP(=O)([O-])OCC[N+](C)(C)C)OC(=O)NC [C-PAF, carbamyl-platelet-activating factor]
cells with electrophysiologic effects: 9 of II cells
